In publication PMC5760199, “Structural insights into the assembly and polyA signal recognition mechanism of the human CPSF complex”:
These are yes or no findings as the source states them, for the method shown. For part of these data: In cells and extracts the contact can be indirect. Some entries that bind do so weakly or less than the wild type. For part of these data: Sequences can lack the tags named with a protein.

By UniProt entry, the sequences of proteins in these tests, tags left out. Where a name states a change or a piece, a line headed by the entry shows the natural chain unless it says otherwise. Chains listed by the source or under a name are the forms on record and can include a tag or linker.
UniProt Q9C0J8: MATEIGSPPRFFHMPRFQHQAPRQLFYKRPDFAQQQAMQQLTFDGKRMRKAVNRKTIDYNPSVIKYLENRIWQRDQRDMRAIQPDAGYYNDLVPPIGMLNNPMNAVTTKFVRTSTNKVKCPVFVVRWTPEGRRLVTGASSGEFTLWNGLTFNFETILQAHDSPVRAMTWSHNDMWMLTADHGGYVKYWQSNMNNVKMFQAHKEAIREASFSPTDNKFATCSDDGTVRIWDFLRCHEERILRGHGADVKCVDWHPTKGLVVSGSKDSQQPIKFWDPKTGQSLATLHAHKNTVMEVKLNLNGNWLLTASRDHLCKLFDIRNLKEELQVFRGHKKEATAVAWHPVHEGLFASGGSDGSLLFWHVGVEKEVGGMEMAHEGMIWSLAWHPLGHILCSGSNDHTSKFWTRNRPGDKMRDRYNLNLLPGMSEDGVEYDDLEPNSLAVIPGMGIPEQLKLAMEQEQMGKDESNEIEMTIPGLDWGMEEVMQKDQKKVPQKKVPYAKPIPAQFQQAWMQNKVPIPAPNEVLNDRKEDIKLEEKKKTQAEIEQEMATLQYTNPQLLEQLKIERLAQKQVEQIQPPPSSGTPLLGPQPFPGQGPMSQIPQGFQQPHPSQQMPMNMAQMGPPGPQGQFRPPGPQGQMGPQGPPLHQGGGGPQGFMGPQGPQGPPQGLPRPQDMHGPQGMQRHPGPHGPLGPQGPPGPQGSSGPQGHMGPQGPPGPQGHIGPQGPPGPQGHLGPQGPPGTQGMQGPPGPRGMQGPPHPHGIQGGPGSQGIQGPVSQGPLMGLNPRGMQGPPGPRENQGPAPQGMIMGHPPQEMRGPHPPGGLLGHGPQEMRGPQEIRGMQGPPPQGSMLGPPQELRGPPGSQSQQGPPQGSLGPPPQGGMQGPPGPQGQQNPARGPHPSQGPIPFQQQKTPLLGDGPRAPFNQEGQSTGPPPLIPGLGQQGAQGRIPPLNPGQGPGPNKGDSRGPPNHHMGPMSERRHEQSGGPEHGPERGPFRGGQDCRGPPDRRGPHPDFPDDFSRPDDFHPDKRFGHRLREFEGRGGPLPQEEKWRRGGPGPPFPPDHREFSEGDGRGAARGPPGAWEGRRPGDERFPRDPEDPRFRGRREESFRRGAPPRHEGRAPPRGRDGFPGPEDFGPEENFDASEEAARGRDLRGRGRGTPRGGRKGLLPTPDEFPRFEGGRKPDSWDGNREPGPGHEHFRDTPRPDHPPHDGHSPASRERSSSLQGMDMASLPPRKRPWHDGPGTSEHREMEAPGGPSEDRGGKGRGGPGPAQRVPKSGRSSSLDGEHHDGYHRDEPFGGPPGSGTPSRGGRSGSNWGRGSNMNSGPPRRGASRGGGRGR
CPSF30^FL, co-expressed subunit (O95639-3, form named): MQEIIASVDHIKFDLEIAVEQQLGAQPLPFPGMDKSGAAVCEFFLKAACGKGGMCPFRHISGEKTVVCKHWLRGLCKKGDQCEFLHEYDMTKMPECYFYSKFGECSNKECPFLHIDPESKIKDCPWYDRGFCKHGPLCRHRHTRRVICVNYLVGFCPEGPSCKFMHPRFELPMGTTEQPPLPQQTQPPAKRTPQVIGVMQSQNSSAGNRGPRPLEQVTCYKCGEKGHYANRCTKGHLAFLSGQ

Legend:
[1] = target: T1, CPSF160^FL-WDR33^M1-K410 heterodimer (human) (UniProt Q10570+Q9C0J8); assay: pull-down; subunits co-expressed in Sf9; lysate on Ni-NTA, eluate on Streptactin beads, by the His6-(StrepII)2 tag on WDR33^M1-K410; 20 mM Tris-Cl pH 7.5, 200 mM NaCl, 10% glycerol, 0.05% Tween20; Coomassie and in-gel GFP fluorescence
[2] = target: T2, CPSF160^FL, subunit of the CPSF complexes purified by the tag on WDR33 (human) (UniProt Q10570); assay: cross-linking; purified CPSF160^FL-WDR33^M1-G474-CPSF30^FL-Fip1^FL complex at 2 mg/ml, 1 mM DSS-d0/d12, 20 mM HEPES pH 7.5, 150 mM NaCl, 0.25 mM TCEP, 37°C 30 min; cross-linked peptides identified by mass spectrometry (xQuest score higher than 30); both purified
T2 sequence: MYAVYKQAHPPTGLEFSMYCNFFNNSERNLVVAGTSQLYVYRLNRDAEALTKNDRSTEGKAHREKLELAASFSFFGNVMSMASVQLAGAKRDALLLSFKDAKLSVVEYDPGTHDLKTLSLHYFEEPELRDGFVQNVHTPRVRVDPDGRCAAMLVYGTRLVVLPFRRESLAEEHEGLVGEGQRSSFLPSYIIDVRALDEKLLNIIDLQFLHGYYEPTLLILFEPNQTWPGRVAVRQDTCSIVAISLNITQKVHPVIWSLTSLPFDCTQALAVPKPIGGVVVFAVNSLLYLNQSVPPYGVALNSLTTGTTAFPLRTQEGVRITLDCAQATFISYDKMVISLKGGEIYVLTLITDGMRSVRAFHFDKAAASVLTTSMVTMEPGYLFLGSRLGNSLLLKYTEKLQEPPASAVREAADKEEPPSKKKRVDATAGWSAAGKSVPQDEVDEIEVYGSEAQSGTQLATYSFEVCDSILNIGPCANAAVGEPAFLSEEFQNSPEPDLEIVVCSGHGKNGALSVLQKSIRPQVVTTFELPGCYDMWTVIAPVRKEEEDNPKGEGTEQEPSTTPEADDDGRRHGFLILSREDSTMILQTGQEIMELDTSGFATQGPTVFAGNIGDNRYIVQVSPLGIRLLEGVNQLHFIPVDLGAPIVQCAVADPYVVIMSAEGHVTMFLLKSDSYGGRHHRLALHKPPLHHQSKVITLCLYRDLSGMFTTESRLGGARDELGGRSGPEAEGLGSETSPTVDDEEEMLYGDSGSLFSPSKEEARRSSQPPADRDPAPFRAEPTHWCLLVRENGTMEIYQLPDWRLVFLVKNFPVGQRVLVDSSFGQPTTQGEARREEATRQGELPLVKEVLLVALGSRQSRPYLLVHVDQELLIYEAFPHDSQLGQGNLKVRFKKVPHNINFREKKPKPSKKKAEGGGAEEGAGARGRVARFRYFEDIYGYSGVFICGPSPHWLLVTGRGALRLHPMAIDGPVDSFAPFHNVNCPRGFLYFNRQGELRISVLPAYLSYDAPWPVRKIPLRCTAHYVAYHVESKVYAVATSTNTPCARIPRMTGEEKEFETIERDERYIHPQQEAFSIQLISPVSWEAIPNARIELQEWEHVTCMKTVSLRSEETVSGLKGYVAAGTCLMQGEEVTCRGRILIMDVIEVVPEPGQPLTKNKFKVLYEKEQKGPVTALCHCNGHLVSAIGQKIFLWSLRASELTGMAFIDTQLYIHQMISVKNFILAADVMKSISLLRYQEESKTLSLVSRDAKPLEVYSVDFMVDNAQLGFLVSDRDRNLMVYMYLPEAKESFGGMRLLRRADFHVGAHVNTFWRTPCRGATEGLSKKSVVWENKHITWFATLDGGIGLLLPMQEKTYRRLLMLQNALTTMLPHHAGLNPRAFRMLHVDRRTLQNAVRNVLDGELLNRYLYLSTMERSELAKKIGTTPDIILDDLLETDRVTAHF

[3] = target: T1, CPSF160^FL-WDR33^M1-K410 heterodimer (human); assay: co-purification of co-expressed subunits; subunits co-expressed in Sf9; Ni-NTA, then Streptactin, then SEC on Superdex-200 in 20 mM Tris-HCl pH 7.5, 150 mM NaCl, 1 mM DTT

Substance	binding [1]	binding [2]	binding [3]
GFP-tagged CPSF30^FL (from UniProt O95639-3 1-243)	binds	–	–
CPSF30^FL, co-expressed subunit (from UniProt O95639-3 1-243)	–	binds	binds
